{"source": "paper PMC4726324", "about": "(Scientific Reports, 2016)", "assay": "general procedure: Fmoc solid-phase peptide synthesis; 2-chloro-chlorotrityl resin; HBTU/DIPEA", "conditions": "coupling step", "data": [{"substance": "cyclo[G^23FF-Nva(δN3)-TP-Prg-T^30]-insulin", "values": [{"measurement": "step yield", "value": 9.8, "unit": "%"}]}]}
